## Library screen at single concentrations

Sequences of proteins named here, by UniProt entry; tags and fusion partners are left off. Residues count along the entry.
UniProt A4I591, 1-473: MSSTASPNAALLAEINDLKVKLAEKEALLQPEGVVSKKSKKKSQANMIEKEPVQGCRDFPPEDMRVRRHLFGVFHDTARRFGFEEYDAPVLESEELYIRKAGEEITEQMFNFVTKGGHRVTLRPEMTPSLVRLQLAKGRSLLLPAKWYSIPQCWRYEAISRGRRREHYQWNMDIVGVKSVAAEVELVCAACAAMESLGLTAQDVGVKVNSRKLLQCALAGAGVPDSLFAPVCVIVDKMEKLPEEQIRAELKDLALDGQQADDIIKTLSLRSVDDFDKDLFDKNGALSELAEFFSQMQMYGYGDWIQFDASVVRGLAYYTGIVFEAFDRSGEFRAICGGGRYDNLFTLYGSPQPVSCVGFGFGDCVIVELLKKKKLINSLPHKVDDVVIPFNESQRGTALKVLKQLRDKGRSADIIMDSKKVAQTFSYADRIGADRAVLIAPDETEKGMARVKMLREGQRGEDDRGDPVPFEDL
UniProt I6X8D2, whole entry: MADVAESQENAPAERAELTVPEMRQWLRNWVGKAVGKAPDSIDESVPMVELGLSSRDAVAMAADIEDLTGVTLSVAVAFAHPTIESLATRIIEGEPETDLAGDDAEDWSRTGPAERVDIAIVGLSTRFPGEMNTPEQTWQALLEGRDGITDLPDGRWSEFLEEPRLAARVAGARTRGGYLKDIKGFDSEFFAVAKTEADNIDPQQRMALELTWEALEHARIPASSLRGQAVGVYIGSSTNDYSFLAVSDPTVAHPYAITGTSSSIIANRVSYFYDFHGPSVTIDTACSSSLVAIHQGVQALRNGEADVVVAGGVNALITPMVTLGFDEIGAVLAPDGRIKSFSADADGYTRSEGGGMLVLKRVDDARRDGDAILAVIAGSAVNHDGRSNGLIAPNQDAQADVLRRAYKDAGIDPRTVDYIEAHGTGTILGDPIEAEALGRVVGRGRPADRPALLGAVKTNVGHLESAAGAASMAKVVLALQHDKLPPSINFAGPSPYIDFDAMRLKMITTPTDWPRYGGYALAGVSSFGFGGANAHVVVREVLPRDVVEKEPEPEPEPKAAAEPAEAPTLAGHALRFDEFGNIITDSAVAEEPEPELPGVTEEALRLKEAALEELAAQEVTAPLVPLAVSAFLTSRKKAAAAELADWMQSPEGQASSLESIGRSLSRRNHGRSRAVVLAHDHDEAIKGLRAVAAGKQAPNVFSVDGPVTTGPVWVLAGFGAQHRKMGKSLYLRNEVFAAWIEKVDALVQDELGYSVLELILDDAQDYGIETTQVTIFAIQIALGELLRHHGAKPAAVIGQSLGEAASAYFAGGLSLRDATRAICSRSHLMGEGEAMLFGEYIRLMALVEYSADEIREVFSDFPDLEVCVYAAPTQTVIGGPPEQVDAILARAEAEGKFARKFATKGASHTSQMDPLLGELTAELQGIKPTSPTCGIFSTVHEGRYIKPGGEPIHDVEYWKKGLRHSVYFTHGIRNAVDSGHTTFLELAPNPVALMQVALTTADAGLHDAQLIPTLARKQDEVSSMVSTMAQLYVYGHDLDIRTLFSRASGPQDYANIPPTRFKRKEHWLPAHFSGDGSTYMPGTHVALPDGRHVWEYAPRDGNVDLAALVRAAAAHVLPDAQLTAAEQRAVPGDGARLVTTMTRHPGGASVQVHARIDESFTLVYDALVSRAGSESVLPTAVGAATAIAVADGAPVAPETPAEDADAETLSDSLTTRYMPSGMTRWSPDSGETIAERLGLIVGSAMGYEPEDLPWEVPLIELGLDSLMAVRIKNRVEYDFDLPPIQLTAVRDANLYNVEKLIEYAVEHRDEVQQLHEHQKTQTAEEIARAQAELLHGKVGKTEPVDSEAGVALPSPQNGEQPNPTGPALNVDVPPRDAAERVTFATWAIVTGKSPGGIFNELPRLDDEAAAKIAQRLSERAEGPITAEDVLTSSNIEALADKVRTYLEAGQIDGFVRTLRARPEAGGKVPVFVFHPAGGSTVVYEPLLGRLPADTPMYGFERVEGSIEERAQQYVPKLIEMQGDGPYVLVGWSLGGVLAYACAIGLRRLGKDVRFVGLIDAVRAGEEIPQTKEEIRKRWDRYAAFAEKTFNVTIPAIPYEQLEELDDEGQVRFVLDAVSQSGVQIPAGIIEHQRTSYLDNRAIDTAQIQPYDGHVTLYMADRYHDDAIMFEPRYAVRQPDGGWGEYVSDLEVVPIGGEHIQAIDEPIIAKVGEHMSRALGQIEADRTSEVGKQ
UniProt P9WFT3, whole entry: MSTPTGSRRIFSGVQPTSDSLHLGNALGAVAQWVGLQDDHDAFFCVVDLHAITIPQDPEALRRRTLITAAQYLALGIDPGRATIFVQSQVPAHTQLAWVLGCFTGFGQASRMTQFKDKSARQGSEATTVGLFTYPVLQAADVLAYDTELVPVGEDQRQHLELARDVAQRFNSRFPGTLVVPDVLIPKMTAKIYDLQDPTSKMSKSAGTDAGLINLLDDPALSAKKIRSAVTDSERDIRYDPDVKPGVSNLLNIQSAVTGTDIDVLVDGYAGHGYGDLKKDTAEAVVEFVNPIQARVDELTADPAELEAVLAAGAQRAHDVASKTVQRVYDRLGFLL
UniProt Q4DA54, 1-478: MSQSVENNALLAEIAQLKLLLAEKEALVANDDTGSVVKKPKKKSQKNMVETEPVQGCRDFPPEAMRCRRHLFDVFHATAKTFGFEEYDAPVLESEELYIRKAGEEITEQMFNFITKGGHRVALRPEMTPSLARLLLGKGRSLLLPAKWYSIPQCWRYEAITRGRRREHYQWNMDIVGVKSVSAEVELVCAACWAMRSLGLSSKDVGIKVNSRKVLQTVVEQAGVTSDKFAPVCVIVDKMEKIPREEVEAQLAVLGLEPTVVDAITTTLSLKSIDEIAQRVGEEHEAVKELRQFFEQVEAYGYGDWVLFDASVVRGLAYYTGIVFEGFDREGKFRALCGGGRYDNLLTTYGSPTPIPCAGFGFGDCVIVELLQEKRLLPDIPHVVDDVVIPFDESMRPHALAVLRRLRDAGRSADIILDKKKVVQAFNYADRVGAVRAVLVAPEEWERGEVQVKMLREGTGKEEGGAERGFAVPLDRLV

Data taken from ChEMBL document CHEMBL3988442, “University of Dundee, Small-Polar-MMV Screening Library” (2021).

LiHisRS: 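Histidine-tRNA ligase, Leishmania infantum (UniProt A4I591). Enzyme assay of histidyl-tRNA synthetase; the read-out is not stated. Tested at 30 µM. Higher reads as stronger inhibition (inferred: compounds with an IC50 in retests scored well above the rest). The assay is labelled LdHisRS but filed under L. infantum. Of about 69,000 compounds tested this way, about 410 (0.6%) reached 50% or more in at least one test.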
Pks13 thioesterase: 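Enzyme assay of the thioesterase domain of polyketide synthase 13; the read-out is not stated. Target: Polyketide synthase Pks13, Mycobacterium tuberculosis (UniProt I6X8D2). Concentration: 30 µM. The record gives no direction; the compounds picked for IC50 retests had high values, so higher reads as stronger inhibition. About 67,000 compounds were tested under these conditions; 0.46% (about 300) showed 50% or more at least once.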
MtTrpRS: 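Enzyme assay of tryptophanyl-tRNA synthetase; the read-out is not stated. Target: Tryptophan-tRNA ligase, Mycobacterium tuberculosis (UniProt P9WFT3). Concentration: 10 µM. Direction is not recorded; retested compounds ran higher, which suggests that high means inhibition. About 65,000 compounds were tested under these conditions; 0.098% (about 64) showed 50% or more at least once.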
TcHisRS: 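Enzyme assay of histidyl-tRNA synthetase; the read-out is not stated. Target: Histidine-tRNA ligase, Trypanosoma cruzi CL Brener (UniProt Q4DA54). Compounds at 30 µM. Direction is inferred from retests: higher values go with stronger inhibition. Of about 69,000 compounds tested this way, about 31 (0.045%) reached 50% or more in at least one test.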

The filed quantity is “Percent Effect” (%).
The controls that fix the scale are not given in the record; negative values are as filed.
The compounds are a random part of those screened.

With COc1ccc(C(=O)C2CCCN(Cc3ccon3)C2)c(OC)c1 (stereo not given) the screen gave LiHisRS: 0%; Pks13 thioesterase: -30.05%; MtTrpRS: 0.7417%; TcHisRS: 1.212%.
With Cc1cccc(-c2nccn2C2CC(=O)N(C(C)C)C2)n1 (stereo not given) the screen gave LiHisRS: 3.279%; Pks13 thioesterase: -1.685%; MtTrpRS: -4.026%; TcHisRS: 4%.
With Cc1nn(C)c2c(N(C)Cc3cccs3)nc(C3CC3)nc12 the screen gave LiHisRS: 14.29%; Pks13 thioesterase: 33.12%; MtTrpRS: -1.152%; TcHisRS: 3.96%.
With CCc1cc(N(C)Cc2ncc[nH]2)nc(N2CCOCC2)n1 the screen gave LiHisRS: 11.67%; Pks13 thioesterase: -12.4%; MtTrpRS: -1.698%; TcHisRS: 5.195%.
With CC(=O)N1CCc2c(nc(N(C)C)nc2N(C)CCO)C1 the screen gave LiHisRS: 18.57%; Pks13 thioesterase: -2.31%; MtTrpRS: 4.874%; TcHisRS: -4.255%.
With CC(C)c1nccn1CCCNC(=O)c1ccc(-c2ccncc2)nc1 the screen gave LiHisRS: 12.12%; Pks13 thioesterase: 38.8%; MtTrpRS: 9.485%; TcHisRS: 3.261%.
With CCCNC(=O)CCc1ccnc2ccccc12 the screen gave LiHisRS: 11.67%; Pks13 thioesterase: -19.95%; MtTrpRS: 2.816%; TcHisRS: 0%.
With CN1CC(=O)N(c2cccnc2)CC12CCN(C(=O)c1cccn1C)C2 (stereo not given) the screen gave LiHisRS: 11.11%; Pks13 thioesterase: -25.11%; MtTrpRS: -6.117%; TcHisRS: 10.48%.
With O=C(NCCc1nccs1)[C@H](c1ccccc1)n1cnnn1 the screen gave LiHisRS: 5.495%; Pks13 thioesterase: -1.365%; MtTrpRS: -1.078%; TcHisRS: 3.093%.
With Cc1ccc(C2CSCCN2C(=O)c2ccoc2C)o1 (stereo not given) the screen gave LiHisRS: 12.9%; Pks13 thioesterase: -15.57%; MtTrpRS: 0.75%; TcHisRS: 8.808%.
With Cc1cccc(CN2CCc3ncnc(C)c3CC2)n1 the screen gave LiHisRS: 5.714%; Pks13 thioesterase: 4.426%; MtTrpRS: 1.069%; TcHisRS: 4.132%.
With Cc1ccc(S(=O)(=O)Nc2c(C)nn(C)c2C)cc1C the screen gave LiHisRS: 21.21%; Pks13 thioesterase: -15.04%; MtTrpRS: -2.825%; TcHisRS: 1.087%.
With NC(=O)N1CCC(C(=O)NC2CCc3nccn3C2)CC1 (stereo not given) the screen gave LiHisRS: 14.81%; MtTrpRS: 3.342%; TcHisRS: 7.975%.
With Cn1ccc(CN2CC(Cc3nccc4cc[nH]c34)C2)n1 the screen gave LiHisRS: 9.929%; Pks13 thioesterase: -9.244%; MtTrpRS: -0.4342%; TcHisRS: 2.326%.
With C[C@@H]1CN(C(=O)CCCN2CCCC2)CC[C@@]1(O)C1CCOCC1 the screen gave LiHisRS: 8.571%; Pks13 thioesterase: -28.83%; MtTrpRS: 1.847%; TcHisRS: 1.02%.
With Cc1nnc(C(C)Nc2cccc(COCC(F)(F)C(F)F)c2)o1 (stereo not given) the screen gave LiHisRS: 10.99%; Pks13 thioesterase: 16.67%; MtTrpRS: 5.828%; TcHisRS: 10.24%.
With CC(C)N(C)Cc1cnc2n1CCN(C(=O)NC1CCCC1)C2 the screen gave LiHisRS: 2.19%; Pks13 thioesterase: -19.8%; MtTrpRS: 3.7%; TcHisRS: 3.825%.
With O=C(c1cnccn1)N1CCCC(Cn2cc(C3CCCC3)nn2)C1 (stereo not given) the screen gave LiHisRS: -1.667%; Pks13 thioesterase: 3.833%; MtTrpRS: -0.6791%; TcHisRS: 2.597%.
With CCC(C)(C)NC(=O)c1scnc1Cl the screen gave LiHisRS: -4.464%; Pks13 thioesterase: 10.99%; MtTrpRS: -0.6353%; TcHisRS: 6.897%.
With Cc1nc(-c2ccccc2)sc1CSC(C)C(N)=O (stereo not given) the screen gave LiHisRS: 7.895%; Pks13 thioesterase: -24.25%; MtTrpRS: -1.143%; TcHisRS: 3.911%.
With Cc1ccc2c(c1)C1(CC2)CCN(CC(=O)O)CC1 the screen gave LiHisRS: -22.86%; Pks13 thioesterase: 14.19%; MtTrpRS: 12.04%; TcHisRS: 1.961%.
With Cc1cc(O)cc(C2CCCN2C(=O)c2ccn(C)n2)n1 (stereo not given) the screen gave LiHisRS: -1.418%; Pks13 thioesterase: -0.06872%; MtTrpRS: 12.01%; TcHisRS: -3.101%.
With CN(C)c1cc(CNC(=O)CC2CCCCC2)ccn1 the screen gave LiHisRS: 16.81%; Pks13 thioesterase: -17.68%; MtTrpRS: -2.825%; TcHisRS: -0.4425%.
With CN(C)CC(C)(C)CN1CCC(c2ccnc(-c3cccc(O)c3)c2)C1 (stereo not given) the screen gave LiHisRS: 15.49%; Pks13 thioesterase: -28.78%; MtTrpRS: 0.819%; TcHisRS: 10.5%.
With Cc1cccc(C)c1NC(=O)c1n[nH]c(-n2cnnc2)n1 the screen gave LiHisRS: 16%; Pks13 thioesterase: -3.638%; TcHisRS: 2.996%.
With CCOc1ccc(NC(=O)c2ccc(C#N)cc2C)cc1CO the screen gave LiHisRS: 9.859%; Pks13 thioesterase: -13.09%; MtTrpRS: -3.734%; TcHisRS: 8.28%.
With CCN(CC)c1nc(C)cc(C(=O)Nc2ccc(Br)cc2)n1 the screen gave LiHisRS: -205.5%; Pks13 thioesterase: -11.62%; MtTrpRS: -2.265%; TcHisRS: 5.941%.
With COCCOc1ncccc1C(=O)N1CCCn2ncnc21 the screen gave LiHisRS: 3.175%; Pks13 thioesterase: -28.05%; MtTrpRS: -2.249%; TcHisRS: 4.04%.
With Cc1cc(N[C@@H](CO)c2ccccc2)n2nc(C)c(C)c2n1 the screen gave LiHisRS: 12.5%; Pks13 thioesterase: -9.688%; MtTrpRS: 1.447%; TcHisRS: -5.797%.
With O=C(c1cnccn1)N1CCC(CN2CCOCC2)CC1 the screen gave LiHisRS: 24.05%; Pks13 thioesterase: -48.37%; MtTrpRS: 0.05974%; TcHisRS: -0.431%.
With Cc1n[nH]c(C)c1C1CCCN1C(=O)CNC(=O)C(C)(C)C (stereo not given) the screen gave LiHisRS: 5.769%; Pks13 thioesterase: -2.481%; MtTrpRS: 0.2138%; TcHisRS: -0.8264%.
With O=C(Nc1cccc(C2SCCS2)c1)C1CCCN1c1nccs1 (stereo not given) the screen gave LiHisRS: 19.44%; Pks13 thioesterase: -4.423%; MtTrpRS: -4.545%; TcHisRS: 13.2%.